PubChem BioAssay AID1259308 | NCATS, 2017
This is a random part of about 59,000 reagents. Over the whole deposit, about 1,510 (2.6%) were called active. 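Calls use total luciferase alone and ignore viability, so some active siRNAs may act by altering cell number.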 The numbers tell different reagents against one gene apart. Further read-outs or replicates are left out here.

- Purpose: 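Genes whose loss raises luciferase production in HEK293 cells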 (primary screen)
- Cells: human HEK293 embryonic kidney cells stably expressing firefly luciferase (HEK-CMV-Luc2-Hygro)
- Knock-down reagent: single siRNA against human genes, 0.8 pmol siRNA per well
- Duration: 72 h
- Detection: 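Luciferase light (ONE-Glo) measured on one replicate plate set and viability (CellTiter-Glo) on the other, scaled to a negative control siRNA, with robust z-scores and luciferase per cell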
- Reading the numbers: total luciferase, z-score: higher = more reporter protein produced
- Hit rule: 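Active when the median/MAD z-score for overall luciferase is greater than 3; a gene was taken forward for validation with new siRNAs if at least two of its three siRNAs passed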
- Meaning of the calls: active = raised luciferase; inactive = no rise

total luciferase, z-score, by target and reagent
INPP4B (GeneID 8821): #1 0.52 inactive; #2 1.34 inactive; #3 -0.347 inactive
TET1P1 (GeneID 441662): #1 0.326 inactive; #2 -0.361 inactive; #3 2.4 inactive
INSYN2A (GeneID 642938): #1 0.68 inactive; #2 -0.11 inactive; #3 -0.156 inactive
RNF169 (GeneID 254225): #1 -2.76 inactive; #2 -0.312 inactive; #3 1.46 inactive
TEX101 (GeneID 83639): #1 1.82 inactive; #2 1 inactive; #3 0.91 inactive
PVRIG (GeneID 79037): #1 -0.468 inactive; #2 1.48 inactive; #3 1 inactive
CDKL4 (GeneID 344387): #1 0.0724 inactive; #2 0.395 inactive; #3 0.532 inactive
TUBBP2 (GeneID 647000): #1 -0.965 inactive; #2 -0.241 inactive; #3 0.0987 inactive
ARPP19P2 (GeneID 643896): #1 0.672 inactive; #2 1.94 inactive; #3 0.828 inactive
TPTE (GeneID 7179): #1 -0.708 inactive; #2 -0.11 inactive; #3 -0.0749 inactive
SNRPG (GeneID 6637): #1 1.78 inactive; #2 3.23 active; #3 1.79 inactive
SGCZ (GeneID 137868): #1 0.463 inactive; #2 -0.46 inactive; #3 -0.193 inactive
CNKSR1 (GeneID 10256): #1 -1.47 inactive; #2 -1.05 inactive; #3 0.903 inactive
GPR12 (GeneID 2835): #1 -0.602 inactive; #2 -0.0983 inactive; #3 0.292 inactive
HUNK (GeneID 30811): #1 0.129 inactive; #2 0.502 inactive; #3 -0.923 inactive
ORAI3 (GeneID 93129): #1 -0.597 inactive; #2 0.389 inactive; #3 -0.982 inactive
IGSF3 (GeneID 3321): #1 0.266 inactive; #2 -1.22 inactive; #3 -0.127 inactive
PLAG1 (GeneID 5324): #1 -0.365 inactive; #2 0.373 inactive; #3 -0.418 inactive
ASXL1 (GeneID 171023): #1 -0.743 inactive; #2 -0.208 inactive; #3 1.06 inactive

Targets listed so far whose gene name starts with R or r:
total luciferase, z-score, by target and reagent
RNF169 (GeneID 254225): #1 -2.76 inactive; #2 -0.312 inactive; #3 1.46 inactive
